From PubChem BioAssay AID504842 (National Center for Advancing Translational Sciences (NCATS), 2011)
The campaign covered roughly 330,000 compounds. About 100 (0.03%) were called active. The inconclusive results got no clear call from the source; some entries with a clear call stand among them for comparison. Calls follow the shape of the dose curve; as a rule, active = well fitted inhibition curve with a large enough effect; inconclusive = small, poorly fitted or top-dose-only effect; inactive = flat fitted curve, though single readings scatter. Potencies of inconclusive entries are doubtful fits and often do not repeat.
Also: nearly all actives have a fitted effect of over 80% in size.
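For Potency in this document: enzyme at 25 nM with ATP substrate at 10 µM during the reaction.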
Potency is read from the fitted curve at half-maximal effect.

What follows are compounds tested on Chaperonin Mm-Cpn (Methanococcus maripaludis) (assay: Inhibitors of TCP-1 ring complex (TRiC) of Methanococcus maripaludis (MmCpn): qHTS). Conditions: purified Mm-Cpn ATPase, ADP Transcreener TR-FRET.
In short: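 Quantitative HTS used 25 nM Mm-CPN and 10 uM ATP in magnesium/KCl Tris buffer, pH 7.4, with 1 mM DTT. Hydrolysis ran 30 min at 37°C; ADP was read by HTRF.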
For N#Cc1ccc(C(=O)CSc2n[nH]c(=O)n2-c2cccnc2)cc1, the Potency was inconclusive: 89.1 µM [inhibitor, single point].
For CCOCCCNC(=O)c1cc(Sc2nnc(C)s2)nc2ccccc12, the Potency was inconclusive: 56.2 µM [inhibitor, single point].
With CCOC(=O)N1CCN(C(=O)c2ccc3c(c2)NC(=O)C(N2CCOCC2)S3)CC1 (stereo not given) the Potency was inconclusive: 11.2 µM [inhibitor, single point].
O=C(O)c1ccc2cccc(Cl)c2c1O was tested, and the Potency was inconclusive: 355 µM [inhibitor, partial curve, poor fit].
COc1ccc(-c2ncc3ccccn23)cc1OC was tested, and the Potency was “inactive”.
CCCC(=O)c1ccc(N2CCN(S(=O)(=O)c3ccccc3)CC2)c(F)c1 was tested, and the Potency was inconclusive: 12.6 µM [inhibitor, single point].
In the case of COc1ccccc1CCC(=O)OCC(=O)Nc1ccc(C(N)=O)cc1, the Potency is reported as inconclusive: 100 µM [inhibitor, partial curve, poor fit].
In the case of CCCc1cc(=O)oc2c(C)c(OCC(=O)Nc3cccnc3)ccc12, the Potency is reported as inconclusive: 100 µM [inhibitor, single point].
With O=S(=O)(Nc1nc2cc3c(cc2nc1Cl)OCCO3)c1ccccc1 the Potency was inconclusive: 79.4 µM [inhibitor, single point].
In the case of Cn1c2ccccc2c2cc(C(=O)OCC(=O)N3CC(=O)Nc4ccccc43)sc21, the Potency is reported as inconclusive: 56.2 µM [inhibitor, single point].
In the case of O=C(CNc1cccc(S(=O)(=O)N2CCCC2)c1)Nc1cccc(F)c1, the Potency is reported as “inactive”.
For CC(C(=O)NCC1CCCO1)c1ccc([N+](=O)[O-])cc1 (stereo not given), the Potency was inconclusive: 15.8 µM [inhibitor, single point].
For Cc1ccc(/C=C/C(=O)O)cc1S(=O)(=O)Nc1ccccc1C(=O)O, the Potency was “inactive”.
CC(C)(C)c1ccc(OCC(O)CSc2ncn[nH]2)cc1 (stereo not given) was tested, and the Potency was inconclusive: 17.8 µM [inhibitor, single point].
With Cc1ccc(C(=O)Nc2nc3ccccc3[nH]2)cc1 the Potency was “inactive”.
For COc1cccc(N(C(=O)c2ccco2)c2nc(-c3sc(NC(=O)c4ccco4)nc3C)cs2)c1, the Potency was inconclusive: 79.4 µM [inhibitor, single point].
CN(C)CCCNC(=O)N1c2ccccc2C=Cc2ccccc21 was tested, and the Potency was “inactive”.
Nn1c(C2CCCCC2)nc2ccccc2c1=O was tested, and the Potency was inconclusive: 22.4 µM [inhibitor, single point].
COc1ccc(NC(=O)COC(=O)CO/N=C(\C)c2ccc3c(c2)OCO3)cc1S(N)(=O)=O was tested, and the Potency was inconclusive: 14.1 µM [inhibitor, single point].
O=C(NC(=S)NCc1ccncc1)c1ccccc1 was tested, and the Potency was “inactive”.
With C/C(=N/NS(=O)(=O)c1ccc(Br)cc1)c1c[nH]c2ccccc12 the Potency was inconclusive: 56.2 µM [inhibitor, single point].
With CN1CCN(c2ccc(NC(=O)COc3cccc4ccccc34)cc2)CC1 the Potency was “inactive”.
CC(C)n1c(N2CCCC2)nc2c1c(=O)[nH]c(=O)n2C was tested, and the Potency was “inactive”.
With COc1cccc(C(=O)O/N=C/c2ccc(Sc3ccc(C)cc3)nc2)c1 the Potency was inconclusive: 89.1 µM [inhibitor, single point].
In the case of COc1ccc(N2C(=O)C(Cl)=C(Nc3ccc(OC)cc3OC)C2=O)cc1, the Potency is reported as inconclusive: 20 µM [inhibitor, single point].
For Cc1oc2cc(O)ccc2c(=O)c1-c1ccccc1, the Potency was “inactive”.
For c1csc(-c2nnc(NC3CCCCC3)c3ccccc23)c1, the Potency was “inactive”.
For Cc1[nH]n(-c2ccccc2)c(=O)c1-c1ccccc1, the Potency was inconclusive: 89.1 µM [inhibitor, single point].
In the case of COC(=O)c1c(-c2ccc(S(C)(=O)=O)cc2)sc2ccc(OC)cc12, the Potency is reported as inconclusive: 56.2 µM [inhibitor, partial curve, poor fit].
With Cc1ccc(C(=O)Nc2ccc(Cl)cc2C(F)(F)F)c(Cl)c1 the Potency was “inactive”.
With Cn1cnnc1SCC(=O)Nc1ccc2nc(SCc3ccccc3Cl)sc2c1 the Potency was inconclusive: 25.1 µM [inhibitor, single point].
With COc1cc(S(=O)(=O)N2CCOCC2)ccc1NC(=O)COC(=O)c1ccccn1 the Potency was inconclusive: 89.1 µM [inhibitor, single point].
Cn1c(/C(C#N)=C(\O)COc2ccc3ccccc3c2)nc2ccccc21 was tested, and the Potency was inconclusive: 63.1 µM [inhibitor, single point].
In the case of CCc1cc2cc3c(cc2nc1SCC(=O)N1CCN(C(=O)c2ccco2)CC1)OCO3, the Potency is reported as inconclusive: 100 µM [inhibitor, single point].
O=c1oc2ccccc2nc1/C=C(O)/C=C/c1ccc(F)cc1 was tested, and the Potency was “inactive”.
In the case of COC(=O)c1ccc(Nc2cc(C)nc(-c3ccccc3O)n2)cc1, the Potency is reported as “inactive”.
CCCn1c(=C(C#N)C#N)s/c(=C2\C=Cc3ccccc3N2CC)c1=O was tested, and the Potency was inconclusive: 100 µM [inhibitor, single point].
CCOCCCNc1nc(-c2ccccc2)nc2ccccc12 was tested, and the Potency was inconclusive: 100 µM [inhibitor, single point].
Fc1ccccc1CSc1ccc(-c2ccco2)nn1 was tested, and the Potency was inconclusive: 28.2 µM [inhibitor, single point].
In the case of O=C(Nc1ccc(NC(=O)c2ccncc2)cc1)c1ccncc1, the Potency is reported as “inactive”.
For Cc1c(C(=O)O)c2cc(O)ccc2n1-c1ccccc1, the Potency was inconclusive: 79.4 µM [inhibitor, partial curve].
CNC(=S)N1N=C(c2ccc(C)cc2)CC1c1ccc(Br)cc1 (stereo not given) was tested, and the Potency was inconclusive: 89.1 µM [inhibitor, partial curve, poor fit].
For O=C(Nc1cccnc1)Nc1ccccn1, the Potency was inconclusive: 7.94 µM [inhibitor, single point].
With Cc1noc(C)c1C(=O)Nc1cc(S(=O)(=O)N2CCCCC2)ccc1N(C)C the Potency was inconclusive: 22.4 µM [inhibitor, single point].
With O=C(Cn1cc2c(n1)CCCC2)N1CCCC1 the Potency was inconclusive: 100 µM [inhibitor, single point].
Cc1cc(C(=O)COC(=O)C(C)NC(N)=O)c(C)n1Cc1ccco1 (stereo not given) was tested, and the Potency was “inactive”.
With CCCOc1c(OC)cccc1C1CC(=O)Nc2cc3c(cc21)OCO3 (stereo not given) the Potency was inconclusive: 56.2 µM [inhibitor, single point].
For COC(=O)c1ccc(CNC(=O)[C@@H]2CCCN2S(=O)(=O)c2ccccc2F)cc1, the Potency was inconclusive: 100 µM [inhibitor, single point].
COc1ccc2oc(=O)c(C(=O)NCc3cccnc3)cc2c1 was tested, and the Potency was “inactive”.
In the case of O=C(Nc1ccccc1N1CCCCC1)c1ccccc1F, the Potency is reported as “inactive”.
For Cc1cc(C)cc(NC(=S)NC2CC3CCCC(C2)N3C2CCCC2)c1 (stereo not given), the Potency was inconclusive: 158 µM [inhibitor, partial curve, poor fit].
With COc1cc(C(=O)NC(c2ccccc2)c2ccccc2)cc(OC)c1C the Potency was inconclusive: 1000 µM [inhibitor, partial curve, poor fit].
In the case of O=C(COc1ccccc1)Nc1nc(-c2ccc(S(=O)(=O)N3CCOCC3)cc2)cs1, the Potency is reported as inconclusive: 63.1 µM [inhibitor, single point].
Cc1ccc(C(=O)N/C(=C\c2ccc(-c3cccc([N+](=O)[O-])c3)o2)C(=O)NCCCN(C)C)cc1 was tested, and the Potency was “inactive”.
COC(=O)c1c(C)[nH]c(C)c1-c1cccc([N+](=O)[O-])c1 was tested, and the Potency was “inactive”.
For COCc1c(C(=O)OCC(=O)N2c3ccccc3NC(=O)C2(C)C)oc2ccccc12, the Potency was inconclusive: 20 µM [inhibitor, single point].
CCOC(=O)c1c(C)[nH]c(N=Nc2ccc(C)cc2C)c1C was tested, and the Potency was “inactive”.
For O=C(/C=C/c1ccc(-c2ccccc2[N+](=O)[O-])o1)c1ccc(Br)cc1, the Potency was inconclusive: 12.6 µM [inhibitor, single point].
C=CCn1c(SCC(=O)N2CC(=O)Nc3ccccc32)nc2scc(-c3cccs3)c2c1=O was tested, and the Potency was inconclusive: 100 µM [inhibitor, single point].
COc1ccc(C(C(=O)NC(C)(C)C)N(C(=O)CNC(=O)c2cccs2)c2ccc(NC(C)=O)cc2)cc1OC (stereo not given) was tested, and the Potency was inconclusive: 17.8 µM [inhibitor, single point].
CCN(C[C@H]1N[C@@](CC)(C(=O)OC)[C@H]2C(=O)N(Cc3ccccc3)C(=O)[C@@H]12)C(=O)Nc1ccc(C)cc1 was tested, and the Potency was inconclusive: 631 µM [inhibitor, partial curve, poor fit].
In the case of Cc1noc(C)c1C(=O)N1CCCC(Nc2ccc(C(C)C)cc2)C1 (stereo not given), the Potency is reported as inconclusive: 100 µM [inhibitor, single point].
With Cc1ccc(C(=O)CCC(=O)OCc2nnc(-c3ccccc3)o2)cc1 the Potency was “inactive”.
In the case of Cc1cccc(NC(=O)c2ccc(S(=O)(=O)N3CCCCCC3)cc2)n1, the Potency is reported as inconclusive: 25.1 µM [inhibitor, single point].
With C/C(=C\C(=O)c1ccccc1)Nc1ccc(O)cc1 the Potency was “inactive”.
With O=C(CSCC(=O)OCC(=O)c1ccc(Br)cc1)Nc1cccc2ccccc12 the Potency was inconclusive: 89.1 µM [inhibitor, single point].
With COc1ccc(-c2c(-c3ccccc3OC)sc3ccccc23)cc1 the Potency was active: 14.1 µM.
With Cc1ccc(S(=O)(=O)Nc2ccc(-c3nc4ccc(C)cc4s3)cc2)cc1 the Potency was inconclusive: 100 µM [inhibitor, single point].
In the case of O=c1cc(-c2ccc(O)cc2)oc2c(C3O[C@H](CO)[C@@H](O)[C@H](O)[C@H]3O)c(O)cc(O)c12 (stereo not given in full), the Potency is reported as “inactive”.
For O=C1CCCN1CCCNc1nc2c(S(=O)(=O)c3ccc(Br)cc3)nnn2c2ccccc12, the Potency was inconclusive: 100 µM [inhibitor, single point].
